Reference: patent US20110081354A1 (Bristol-Myers Squibb, published 2011)
Results are given in words; binding and its absence hold for the method and conditions named. Some results given as binding are weak or reduced against the parent protein; the word gives no strength.

Chains of the proteins cited; added tags and fusions are not shown. Lines headed by an entry give the natural chain unless they say otherwise; changes in a name come on top.
UniProt P16410: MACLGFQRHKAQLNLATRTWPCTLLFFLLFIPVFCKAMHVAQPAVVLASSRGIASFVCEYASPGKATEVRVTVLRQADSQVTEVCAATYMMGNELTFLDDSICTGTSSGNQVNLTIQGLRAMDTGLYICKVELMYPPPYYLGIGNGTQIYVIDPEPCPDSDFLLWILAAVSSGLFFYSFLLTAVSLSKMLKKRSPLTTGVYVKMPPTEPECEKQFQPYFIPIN
UniProt P24161: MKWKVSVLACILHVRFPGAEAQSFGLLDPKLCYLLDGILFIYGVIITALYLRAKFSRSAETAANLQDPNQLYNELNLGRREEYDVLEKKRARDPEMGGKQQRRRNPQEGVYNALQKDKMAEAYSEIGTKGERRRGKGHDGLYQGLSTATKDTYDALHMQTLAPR

Experiments:
[1] = biological target: T1, chimeric CTLA-4 protein comprising the extracellular and transmembrane domains of human CTLA-4 linked to the intracellular domain of CD3zeta, expressed on a transformed cell line (human; murine) (UniProt P16410+P24161); test: flow cytometry on cells expressing human CTLA-4
[2] = biological target: T1, chimeric CTLA-4 protein comprising the extracellular and transmembrane domains of human CTLA-4 linked to the intracellular domain of CD3zeta, expressed on a transformed cell line (human; murine); test: flow cytometry on cells expressing the human CTLA-4 extracellular and transmembrane domains fused to CD3zeta, PE-labeled goat anti-human IgG detection

B1: 6C10 human monoclonal antibody (antibody, V domains shown)
VH: QVQLVESGGGVVQPGRSLRLSCTASGFTFSSHGMHWVRQAPGKGLEWVAVVWFDGSNKYYVDSVKGRFTISRDNSKNTLYLQMNSLRAEDTAVYYCARGSGYSSGFDYWGQGTLVTVSS
VL: DIQMTQSPSSLSASVGDRVTITCRASQGISSWLAWYQQKPEKAPKSLIYAASSLQSGVPSRFSGSGSGTDFTLTISSLQPEDFATYYCQQYNSYPLTFGGGTKVEIK
notes: Purified human IgG kappa antibody from a hybridoma (HuMab mouse); also called mAb 6C10
In the case of B1, the binding [1] is reported as “binds” and the binding [2] is reported as “binds”.
